The data set can be described thus: Example 1: elimination of PRCs from PE passive sampling devices deployed 14 days in marine aquatic sediment. Type of data set: physicochemical. The source says:
Twenty PSDs were created (each consisting of a 4×10 cm piece of PE). Ten of the PSDs were spiked with PCB-36 (which is not visibly detectable) and ten of the PSDs were spiked with Sudan III, a visibly detectable PRC within the scope of the present disclosure. The 20 spiked PSDs then were inserted in the top 10 cm of aquatic sediment at a marine (ocean) site by scuba divers at ten locations within a half-acre area. At each of the 10 locations, one PSD containing PCB-36 and one PSD containing Sudan III were deployed.
After 14 days, the PSDs were collected by divers, brought to the surface, placed in a shipping container, and sent to a laboratory, where they were wiped with moistened tissues, placed in small vials, and extracted with solvent. PSDs submitted for PCB analysis were extracted in a 1:1 aliquot (e.g., 50 mL) of a solvent of methylene chloride and hexane, and PSDs submitted for Sudan III analysis were extracted in 10 mL hexane solvent. Three PSDs containing Sudan III that were not deployed (i.e., were not placed in the sediment, but retained in storage) were also extracted in the same manner, and three PSDs containing PCB-36 that were not deployed (i.e., were not placed in the sediment, but retained in storage) were also extracted in the same manner. These 6 samples are referred to as “trip blanks”. The 13 solvents (from extraction of 10 exposed PSDs and 3 trip blanks PSDs) into which the PCB-36-spiked PSDs were extracted were then measured for PCBs using high-resolution gas chromatography/high-resolution mass spectrometry with an approximate 30- to 60-minute analysis time per sample. Via this analysis, the concentrations of PCB-36 in the 13 PCB-36-spiked PSDs were determined. The 13 solvents (from extraction of 10 exposed PSDs and 3 trip blanks PSDs) into which the Sudan III-spiked PSDs were extracted were measured for Sudan III on a benchtop UV/Vis spectrometer set to a wavelength of 507 nm, with an analysis time of approximately 1-2 minutes per sample. Via this analysis, the concentration of Sudan III in the 13 Sudan III-spiked PSDs was determined.
The “sampling rate” of the PSD is expressed numerically as a term referred to as the elimination rate (ke). ke values can be calculated using the following equation (Lohmann, supra): […]
Because of this, the kinetics of depuration and absorption for these two chemicals can be assumed to be approximately equal. […] The general equation to estimate the steady state concentration of an analyte using a ke value and a measured pre-steady state concentration of an analyte is (Lohmann, supra): […]

Turning to `Clc1cccc(-c2ccc(Cl)c(Cl)c2)c1` [PCB-35], the “time t concentration of PCB-35 absorbed from sediment into PSD” value (Station 6, 14 days) stood at 0.14 ng PCB-35/g PE. `Clc1cccc(-c2cc(Cl)cc(Cl)c2)c1` [PCB-36]: the “time t concentration of PCB-36 in PSD” value (Station 6, 14 days) is on record as 110 ng PCB-36/g PE. Regarding `Oc1ccc2ccccc2c1N=Nc1ccc(N=Nc2ccccc2)cc1` [Sudan III], the “agreement of average Log10 ke values for Sudan III and PCB-36” value (10 stations, not statistically different (P=0.08)) was not above 14%. For the same compound, for the setting “Station 6, 14 days”, the “time t concentration of Sudan III in PSD” value came out at 21 mg Sudan III/g PE.

The record behind these values is patent publication US20170115265A1, “Use of Visibly Detectable Compounds as Performance Reference Compounds in Passive Sampling Devices” (Geosyntec Consultants, Inc., priority 2015, published 2017).
